In US6365722:
No constants are given. Whether binding was seen depends on the method and setting. For some of these results: Binding can be weak; no strength is given.

How the values were obtained:
analogous IKKβ bait [1] = experiment: yeast two-hybrid
[2] = target: bait vector harboring the IKKα Helix-Loop-Helix domain; experiment: yeast two-hybrid, colony growth
[3] = target: bait vector harboring the IKKα Leucine Zipper domain; experiment: yeast two-hybrid, colony growth
analogous IKKβ bait [4] = experiment: yeast two-hybrid, colony growth

Row | binding (analogous IKKβ bait [1]) | binding [2] | binding [3] | binding (analogous IKKβ bait [4]) | Binder
1 | binds | no binding | no binding | binds | Y2H14, IKK binding protein (protein) CGLPLKEGALRPSYDRKSDRPVYEGPSMFGGERRTYPEERMPLPAPSLSHQPPPAPRVEKKPESKNVDDILKPPGRESRPERIVVIMRGLPGSGKTHVAKLIRDKEVEFGGPAPRVLSLDDYFITEVEKEEKDPDSGKKVKKKVREYEYEAEMEETYRTSMFKTFKKTLDDGFFPFIILDAINDRVRHFDQFWSAAKTKGFEVYLAEMSADNQTCGKRNIHGRKLKEINKMADHWETAPRHMMRLDIRSLLQDAAIEEVEMEDFDANIEEQKEEKKDAEEEESELGYIPKSKWEMDTSEAKLDKLDGLRTGTKRKRDWEAIASRMEDYLQLPDDYDTRASEPGKKRVRWADLEEKKDADRKRAIGFVVGQTDWEKITDESGHLAEKALNRTKYI
2 |  | no binding | no binding | binds | Y2h clone 21, TRIP9/HuIκBβ2 (protein, human, UniProt Q15653-2 1-338, looked up) MAGVACLGKAADADEWCDSGLGSLGPDAAAPGGPGLGAELGPGLSWAPLVFGYVTEDGDTALHLAVIHQHEPFLDFLLGFSAGTEYMDLQNDLGQTALHLAAILGETSTVEKLYAAGAGLCVAERRGHTALHLACRVGAHACARALLQPRPRRPREAPDTYLAQGPDRTPDTNHTPVALYPDSDLEKEEEESEEDWKLQLEAENYEGHTPLHVAVIHKDVEMVRLLRDAGADLDKPEPTCGRSPLHLAVEAQAADVLELLLRAGANPAARMYGGRTPLGSAMLRPNPILARLLRAHGAPEPEGEDEKSGPCSSSSDSDSGDEGVSQEERQGSPAGGSG
3 |  | no binding | no binding | binds | Y2h clone 11, RanBP5 (protein, human, UniProt O00410 2-1097, looked up) AAAAAEQQQFYLLLGNLLSPDNVVRKQAEETYENIPGQSKITFLLQAIRNTTAAEEARQMAAVLLRRLLSSAFDEVYPALPSDVQTAIKSELLMIIQMETQSSMRKKVCDIAAELARNLIDEDGNNQWPEGLKFLFDSVSSQNVGLREAALHIFWNFPGIFGNQQQHYLDVIKRMLVQCMQDQEHPSIRTLSARATAAFILANEHNVALFKHFADLLPGFLQAVNDSCYQNDDSVLKSLVEIADTVPKYLRPHLEATLQLSLKLCGDTSLNNMQRQLALEVIVTLSETAAAMLRKHTNIVAQTIPQMLAMMVDLEEDEDWANADELEDDDFDSNAVAGESALDRMACGLGGKLVLPMIKEHIMQMLQNPDWKYRHAGLMALSAIGEGCHQQMEGILNEIVNFVLLFLQDPHPRVRYAACNAVGQMATDFAPGFQKKFHEKVIAALLQTMEDQGNQRVQAHAAAALINFTEDCPKSLLIPYLDNLVKHLHSIMVLKLQELIQKGTKLVLEQVVTSIASVADTAEEKFVPYYDLFMPSLKHIVENAVQKELRLLRGKTIECISLIGLAVGKEKFMQDASDVMQLLLKTQTDFNDMEDDDPQISYMISAWARMCKILGKEFQQYLPVVMGPLMKTASIKPEVALLDTQDMENMSDDDGWEFVNLGDQQSFGIKTAGLEEKSTACQMLVCYAKELKEGFVEYTEQVVKLMVPLLKFYFHDGVRVAAAESMPLLLECARVRGPEYLTQMWHFMCDALIKAIGTEPDSDVLSEIMHSFAKCIEVMGDGCLNNEHFEELGGILKAKLEEHFKNQELRQVKRQDEDYDEQVEESLQDEDDNDVYILTKVSDILHSIFSSYKEKVLPWFEQLLPLIVNLICPHRPWPDRQWGLCIFDDVIEHCSPASFKYAEYFLRPMLQYVCDNSPEVRQAAAYGLGVMAQYGGDNYRPFCTEALPLLVRVIQSADSKTKENVNATENCISAVGKIMKFKPDCVNVEEVLPHWLSWLPLHEDKEEAVQTFNYLCDLIESNHPIVLGPNNTNLPKIFSIIAEGEMHEAIKHEDPCAKRLANVVRQVQTSGGLWTECIAQLSPEQQAAIQELLNSA
